# Taken from: PubChem BioAssay AID1159584 (Peter MacCallum Cancer Centre, 2016)
# Aim: 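Genes that CDH1-null MCF10A cells selectively depend on to survive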 (primary screen)
# Cell system: human MCF10A breast epithelial cells, parental and CDH1-null
# Reagents: siRNA against human genes
# Detection: 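Cell viability by CellTiter-Glo ATP luminescence, each line scaled to the mean of mock wells across plates, then CDH1-null over parental ratio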
# Direction: CDH1-null / parental viability ratio: higher = CDH1-null cells survive relatively better than parental; CDH1-null viability vs mock: higher = more viable CDH1-null cells; parental viability vs mock: higher = more viable parental cells
# In all, the deposit lists about 18,000 reagents; this is a random part of them. Not stated in the record: the amount of reagent, the time to read-out.
gene,CDH1-null / parental viability ratio,CDH1-null viability vs mock (fraction of mock),parental viability vs mock (fraction of mock)
PLEKHG5,0.91,0.8,0.88
SLC6A11,1.39,0.78,0.56
DNAH8,0.91,0.82,0.9
FRRS1,1.25,0.8,0.64
CCNB1,0.73,0.67,0.92
DNAH2,0.87,0.8,0.92
PPP1R16B,1.44,0.92,0.64
RNF216,0.83,0.7,0.84
TUBB3,1.17,0.75,0.64
LIMS3,1.24,1.08,0.87
POLR1F,1.14,0.64,0.56
ZNF767P,0.94,0.77,0.82
CBLB,0.91,0.94,1.03
C5AR2,1.19,0.8,0.67
PPP1R1A,1.64,0.82,0.5
KIF4A,1.56,0.84,0.54
POLR2I,1.03,0.4,0.39
TMED8,0.77,0.34,0.44
BIN1,1.62,0.26,0.16
UGDH,0.79,0.66,0.84
EPS8L2,1,0.64,0.64
YKT6,0.93,0.69,0.74
ANKRD20A1,1,0.74,0.74
C4orf36,0.9,0.45,0.5
NICN1,1.24,0.72,0.58
ZNF585B,1.39,0.5,0.36
SYNC,0.9,0.54,0.6
ENO3,0.72,0.58,0.8

Targets listed so far whose gene name starts with T or t:
gene,CDH1-null / parental viability ratio,CDH1-null viability vs mock (fraction of mock),parental viability vs mock (fraction of mock)
TUBB3,1.17,0.75,0.64
TMED8,0.77,0.34,0.44
